Results reported in the supplement of paper PMC10849652.
This is one part of the list.

Amino acid sequences for entries named in this document (tags omitted). A change or cut given only in a name is not applied to a line headed by its entry.
UniProt Q8TBG4: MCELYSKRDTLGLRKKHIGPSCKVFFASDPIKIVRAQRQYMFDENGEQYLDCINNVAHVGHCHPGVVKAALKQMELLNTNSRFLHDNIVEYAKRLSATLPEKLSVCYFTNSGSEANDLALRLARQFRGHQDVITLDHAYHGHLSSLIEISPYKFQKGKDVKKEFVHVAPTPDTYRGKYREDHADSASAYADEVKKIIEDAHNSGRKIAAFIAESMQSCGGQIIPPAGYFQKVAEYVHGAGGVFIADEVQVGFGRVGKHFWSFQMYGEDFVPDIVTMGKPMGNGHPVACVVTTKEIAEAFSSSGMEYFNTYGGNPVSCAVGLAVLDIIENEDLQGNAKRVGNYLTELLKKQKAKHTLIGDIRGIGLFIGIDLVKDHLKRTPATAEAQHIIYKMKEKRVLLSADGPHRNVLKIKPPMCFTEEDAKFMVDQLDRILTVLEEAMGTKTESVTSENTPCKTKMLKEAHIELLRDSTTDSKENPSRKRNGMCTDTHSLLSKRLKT
UniProt Q9NQT5, whole entry, looked up: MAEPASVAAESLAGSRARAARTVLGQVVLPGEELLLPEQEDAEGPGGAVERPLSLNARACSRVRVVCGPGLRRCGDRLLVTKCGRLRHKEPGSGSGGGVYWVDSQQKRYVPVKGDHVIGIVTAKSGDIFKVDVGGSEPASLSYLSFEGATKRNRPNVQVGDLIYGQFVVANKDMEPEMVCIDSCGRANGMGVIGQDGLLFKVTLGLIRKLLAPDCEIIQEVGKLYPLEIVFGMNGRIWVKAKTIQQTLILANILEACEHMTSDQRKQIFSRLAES
UniProt Q9UNN5: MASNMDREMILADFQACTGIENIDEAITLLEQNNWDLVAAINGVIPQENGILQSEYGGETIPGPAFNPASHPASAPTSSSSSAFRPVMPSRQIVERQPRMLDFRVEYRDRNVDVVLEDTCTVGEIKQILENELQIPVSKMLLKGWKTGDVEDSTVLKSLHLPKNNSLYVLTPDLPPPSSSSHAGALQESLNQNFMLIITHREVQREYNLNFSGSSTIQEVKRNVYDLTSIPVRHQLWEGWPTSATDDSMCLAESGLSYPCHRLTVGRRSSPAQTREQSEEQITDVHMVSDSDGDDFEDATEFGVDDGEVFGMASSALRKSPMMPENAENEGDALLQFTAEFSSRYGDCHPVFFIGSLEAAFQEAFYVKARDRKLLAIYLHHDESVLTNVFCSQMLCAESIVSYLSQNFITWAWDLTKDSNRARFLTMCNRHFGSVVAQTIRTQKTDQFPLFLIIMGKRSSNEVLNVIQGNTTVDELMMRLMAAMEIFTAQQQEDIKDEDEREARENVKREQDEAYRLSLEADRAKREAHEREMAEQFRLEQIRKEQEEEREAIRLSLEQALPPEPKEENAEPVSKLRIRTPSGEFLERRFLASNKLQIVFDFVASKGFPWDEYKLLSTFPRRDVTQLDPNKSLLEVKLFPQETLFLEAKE
UniProt P10768: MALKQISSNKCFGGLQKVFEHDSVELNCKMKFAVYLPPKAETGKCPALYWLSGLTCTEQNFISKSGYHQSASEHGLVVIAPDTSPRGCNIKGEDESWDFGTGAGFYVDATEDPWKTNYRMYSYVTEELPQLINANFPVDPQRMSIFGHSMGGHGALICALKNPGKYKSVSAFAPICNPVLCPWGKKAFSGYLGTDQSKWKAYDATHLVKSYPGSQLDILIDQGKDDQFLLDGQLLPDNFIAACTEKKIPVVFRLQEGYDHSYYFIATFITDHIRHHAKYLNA
UniProt Q8IUD2: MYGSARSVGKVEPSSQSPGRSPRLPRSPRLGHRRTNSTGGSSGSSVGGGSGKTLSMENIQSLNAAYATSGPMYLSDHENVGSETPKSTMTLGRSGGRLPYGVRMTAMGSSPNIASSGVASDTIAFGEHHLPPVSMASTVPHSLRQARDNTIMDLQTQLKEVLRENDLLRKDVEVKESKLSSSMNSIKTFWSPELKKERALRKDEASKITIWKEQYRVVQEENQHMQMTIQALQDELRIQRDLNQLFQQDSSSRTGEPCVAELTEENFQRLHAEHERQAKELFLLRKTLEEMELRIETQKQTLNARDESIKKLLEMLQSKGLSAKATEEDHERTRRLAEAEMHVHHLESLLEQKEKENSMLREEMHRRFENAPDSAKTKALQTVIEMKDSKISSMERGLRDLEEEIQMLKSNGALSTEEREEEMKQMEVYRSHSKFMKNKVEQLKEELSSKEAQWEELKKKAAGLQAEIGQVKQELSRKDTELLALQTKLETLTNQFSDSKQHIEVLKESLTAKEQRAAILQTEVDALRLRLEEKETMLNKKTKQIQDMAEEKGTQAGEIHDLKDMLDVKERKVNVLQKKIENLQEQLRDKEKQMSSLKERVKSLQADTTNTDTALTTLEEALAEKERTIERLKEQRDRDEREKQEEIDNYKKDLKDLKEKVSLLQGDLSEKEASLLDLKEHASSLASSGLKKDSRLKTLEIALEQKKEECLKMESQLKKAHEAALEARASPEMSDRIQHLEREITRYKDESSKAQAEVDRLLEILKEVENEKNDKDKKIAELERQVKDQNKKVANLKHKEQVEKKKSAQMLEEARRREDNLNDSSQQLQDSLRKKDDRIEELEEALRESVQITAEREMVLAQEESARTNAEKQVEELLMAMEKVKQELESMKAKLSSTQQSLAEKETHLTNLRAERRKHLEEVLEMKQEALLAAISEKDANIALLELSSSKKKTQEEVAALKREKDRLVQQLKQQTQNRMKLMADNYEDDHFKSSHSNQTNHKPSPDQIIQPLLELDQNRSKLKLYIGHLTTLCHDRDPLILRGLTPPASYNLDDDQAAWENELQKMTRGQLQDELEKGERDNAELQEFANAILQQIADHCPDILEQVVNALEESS
UniProt O95571: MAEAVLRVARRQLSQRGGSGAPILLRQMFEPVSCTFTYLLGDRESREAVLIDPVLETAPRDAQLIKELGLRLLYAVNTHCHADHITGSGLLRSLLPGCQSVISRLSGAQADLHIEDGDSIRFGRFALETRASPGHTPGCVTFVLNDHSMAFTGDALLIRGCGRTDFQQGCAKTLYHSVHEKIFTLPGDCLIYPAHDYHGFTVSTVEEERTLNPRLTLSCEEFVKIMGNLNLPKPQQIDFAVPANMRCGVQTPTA
UniProt Q9Y3B2, whole entry, looked up: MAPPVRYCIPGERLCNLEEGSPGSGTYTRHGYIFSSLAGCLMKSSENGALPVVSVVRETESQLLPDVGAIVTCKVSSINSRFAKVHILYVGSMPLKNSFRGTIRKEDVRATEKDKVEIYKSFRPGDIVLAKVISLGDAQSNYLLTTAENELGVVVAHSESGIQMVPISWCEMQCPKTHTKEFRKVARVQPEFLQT
UniProt Q13868, whole entry, looked up: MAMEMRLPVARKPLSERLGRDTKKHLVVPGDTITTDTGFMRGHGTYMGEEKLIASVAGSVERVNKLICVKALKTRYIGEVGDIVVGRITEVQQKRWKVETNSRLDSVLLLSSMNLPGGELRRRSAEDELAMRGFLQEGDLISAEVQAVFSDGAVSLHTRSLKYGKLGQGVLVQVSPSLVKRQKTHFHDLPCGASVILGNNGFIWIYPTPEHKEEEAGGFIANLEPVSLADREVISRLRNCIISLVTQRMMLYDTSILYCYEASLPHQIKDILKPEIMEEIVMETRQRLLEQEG
UniProt Q9NPD3, whole entry, looked up: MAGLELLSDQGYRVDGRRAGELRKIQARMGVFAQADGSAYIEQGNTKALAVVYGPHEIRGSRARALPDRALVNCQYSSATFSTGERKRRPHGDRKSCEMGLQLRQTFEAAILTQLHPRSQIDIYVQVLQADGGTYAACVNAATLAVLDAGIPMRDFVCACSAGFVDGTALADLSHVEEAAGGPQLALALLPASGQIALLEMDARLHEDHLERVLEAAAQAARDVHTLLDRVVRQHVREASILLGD
UniProt Q9GZU8: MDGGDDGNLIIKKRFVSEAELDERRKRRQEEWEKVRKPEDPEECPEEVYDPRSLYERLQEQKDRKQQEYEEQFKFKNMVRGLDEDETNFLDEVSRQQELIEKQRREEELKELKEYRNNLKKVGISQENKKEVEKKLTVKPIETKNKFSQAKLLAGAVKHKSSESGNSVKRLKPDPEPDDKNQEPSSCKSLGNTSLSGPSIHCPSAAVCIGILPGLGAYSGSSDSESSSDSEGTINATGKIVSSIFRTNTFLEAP
UniProt P15311, whole entry, looked up: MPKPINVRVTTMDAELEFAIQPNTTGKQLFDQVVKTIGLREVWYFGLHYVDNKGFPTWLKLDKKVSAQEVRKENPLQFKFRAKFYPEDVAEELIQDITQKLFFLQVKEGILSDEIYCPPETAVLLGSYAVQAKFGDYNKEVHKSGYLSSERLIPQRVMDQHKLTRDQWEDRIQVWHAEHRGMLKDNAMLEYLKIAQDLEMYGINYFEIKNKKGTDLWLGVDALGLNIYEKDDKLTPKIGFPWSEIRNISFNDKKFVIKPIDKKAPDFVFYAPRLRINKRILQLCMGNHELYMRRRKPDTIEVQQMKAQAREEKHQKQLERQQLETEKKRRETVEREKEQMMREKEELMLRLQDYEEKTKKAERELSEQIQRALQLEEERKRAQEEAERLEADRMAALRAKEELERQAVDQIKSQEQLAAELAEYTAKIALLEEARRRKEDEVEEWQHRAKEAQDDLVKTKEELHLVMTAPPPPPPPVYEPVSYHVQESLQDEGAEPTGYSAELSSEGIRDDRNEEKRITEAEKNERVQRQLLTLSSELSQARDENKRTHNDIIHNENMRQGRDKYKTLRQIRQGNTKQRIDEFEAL
UniProt P11474: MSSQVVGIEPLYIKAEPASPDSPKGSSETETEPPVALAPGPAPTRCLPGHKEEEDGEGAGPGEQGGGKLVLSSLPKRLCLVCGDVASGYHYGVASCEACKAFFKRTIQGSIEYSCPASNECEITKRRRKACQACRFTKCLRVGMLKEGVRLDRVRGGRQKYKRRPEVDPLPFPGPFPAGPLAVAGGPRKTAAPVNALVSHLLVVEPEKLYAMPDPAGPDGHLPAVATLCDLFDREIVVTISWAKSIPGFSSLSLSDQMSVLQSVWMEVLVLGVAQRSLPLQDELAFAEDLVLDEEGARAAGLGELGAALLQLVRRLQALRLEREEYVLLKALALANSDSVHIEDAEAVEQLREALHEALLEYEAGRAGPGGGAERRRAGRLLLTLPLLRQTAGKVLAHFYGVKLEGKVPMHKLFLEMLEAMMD

Experiments:
Assay in all cases: log2 fold change, soluble protein after heating vs DMSO (PISA); higher = thermal stabilisation; K562 cells, 10 uM, 30 min; active = over 0.2 and 3.5 SD of the protein, either way, in both replicates (recomputed)
[1] = compound: CS(=O)(=O)c1ccc(-c2cnc(N)c(C(=O)Nc3ccccc3)n2)cc1
Summary of the method: (§1)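 Soluble protein was quantified by TMTpro 16plex LC-MS/MS after channel sums were equalised. It was obtained as the supernatant after 21,000xg for 90 min from pooled aliquots of K562 cells (2×10^6 cells/mL, 10 μM compound, 30 min) heated for 3 min across 48°C-58°C and extracted in PBS with 0.5% NP-40 at 4°C. Thermal stability values are relative to control samples and come from duplicates. They are given as log2 fold changes.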

crizotinib = compound: C[C@@H](Oc1cc(-c2cnn(C3CCNCC3)c2)cnc1N)c1c(Cl)ccc(F)c1Cl [crizotinib]
Summary of the method: as §1

[2] = compound: C[C@@H]1COCCN1C2=NC(=NC(=C2)C3(CC3)S(=O)(=O)C)C4=C5C=CNC5=CC=C4
Summary of the method: as §1

[3] = compound: C[C@H](C1=CC=C(C=C1)C(=O)NC2=C3C=CNC3=NC=C2)N
Summary of the method: as §1

duvelisib = compound: C[C@H](Nc1ncnc2nc[nH]c12)c1cc2cccc(Cl)c2c(=O)n1-c1ccccc1 [duvelisib]
Summary of the method: as §1

gandotinib = compound: Cc1cc(Nc2cc(CN3CCOCC3)c3nc(C)c(Cc4ccc(Cl)cc4F)n3n2)n[nH]1 [gandotinib]
Summary of the method: as §1

tozasertib = compound: Cc1cc(Nc2cc(N3CCN(C)CC3)nc(Sc3ccc(NC(=O)C4CC4)cc3)n2)n[nH]1 [tozasertib]
Summary of the method: as §1

[4] = compound: Cc1cc(SCc2sc(-c3ccc(C(F)(F)F)cc3)nc2C)ccc1OCC(=O)O
Summary of the method: as §1

doramapimod = compound: Cc1ccc(-n2nc(C(C)(C)C)cc2NC(=O)Nc2ccc(OCCN3CCOCC3)c3ccccc23)cc1 [doramapimod]
Summary of the method: as §1

ispinesib = compound: Cc1ccc(C(=O)N(CCCN)[C@@H](c2nc3cc(Cl)ccc3c(=O)n2Cc2ccccc2)C(C)C)cc1 [ispinesib]
Summary of the method: as §1

bafetinib = compound: Cc1ccc(NC(=O)c2ccc(CN3CC[C@H](N(C)C)C3)c(C(F)(F)F)c2)cc1Nc1nccc(-c2cncnc2)n1 [bafetinib]
Summary of the method: as §1

[5] = compound: Cc1cccc(CC(=O)N2CCc3c2ccc(-c2cn(C)c4ncnc(N)c24)c3F)n1
Summary of the method: as §1

nilotinib = compound: Cc1cn(-c2cc(NC(=O)c3ccc(C)c(Nc4nccc(-c5cccnc5)n4)c3)cc(C(F)(F)F)c2)cn1 [nilotinib]
Summary of the method: as §1

[6] = compound: Cc1nc(Nc2n[nH]c3c2CN(C(=O)N[C@H](CN(C)C)c2ccccc2)C3(C)C)c2sccc2n1
Summary of the method: as §1

dasatinib = compound: Cc1nc(Nc2ncc(C(=O)Nc3c(C)cccc3Cl)s2)cc(N2CCN(CCO)CC2)n1 [dasatinib]
Summary of the method: as §1

[7] = compound: Cc1ncc(-c2ccnc(Nc3ccc(S(C)(=O)=O)cc3)n2)n1C(C)C
Summary of the method: as §1

[8] = compound: Cn1cc(-c2ccc3c(c2)CCN3C(=O)Cc2cccc(C(F)(F)F)c2)c2c(N)ncnc21
Summary of the method: as §1

[9] = compound: Cn1cc(-c2ccc3nnc(C(F)(F)c4ccc5ncccc5c4)n3n2)cn1
Summary of the method: as §1

tipifarnib = compound: Cn1cncc1[C@@](N)(c1ccc(Cl)cc1)c1ccc2c(c1)c(-c1cccc(Cl)c1)cc(=O)n2C [tipifarnib]
Summary of the method: as §1

mubritinib = compound: FC(F)(F)c1ccc(/C=C/c2nc(COc3ccc(CCCCn4ccnn4)cc3)co2)cc1 [mubritinib]
Summary of the method: as §1

Measured: log2 fold change

ETNPPL (UniProt Q8TBG4)
inactive: [1] -0.023 | crizotinib -0.132 | [2] 0.063 | [3] 0.136 | duvelisib -0.064 | gandotinib -0.186 | tozasertib -0.001 | [4] -0.07 | doramapimod 0.066 | ispinesib 0.017 | bafetinib -0.005 | [5] -0.003 | nilotinib 0.096 | [6] 0.109 | dasatinib 0.023 | [7] 0.252 | [8] 0.129 | [9] -0.029 | tipifarnib 0.073 | mubritinib -0.178

EXOSC3 (UniProt Q9NQT5)
inactive: [1] -0.075 | crizotinib -0.021 | [2] -0.027 | [3] 0.077 | duvelisib 0.02 | gandotinib -0.004 | tozasertib -0.05 | [4] 0.031 | doramapimod 0.029 | ispinesib -0.021 | bafetinib 0.047 | [5] 0.051 | nilotinib -0.09 | [6] 0.059 | dasatinib -0.039 | [7] -0.047 | [8] -0.005 | [9] -0.029 | tipifarnib -0.005 | mubritinib -0.015

ERP29 (UniProt P30040)
inactive: [1] 0.018 | crizotinib 0.039 | [2] -0.041 | [3] 0.006 | duvelisib -0.008 | gandotinib 0.079 | tozasertib 0.006 | [4] 0.01 | doramapimod -0.003 | ispinesib 0.031 | bafetinib -0.038 | [5] -0.014 | nilotinib 0.037 | [6] 0.018 | dasatinib 0.013 | [7] -0.022 | [8] -0.002 | [9] 0.004 | tipifarnib 0.049 | mubritinib -0.031

Taken from the results shown (two entries):
ETNPPL (UniProt Q8TBG4)
inactive: [1] -0.023 | crizotinib -0.132 | [2] 0.063 | [3] 0.136 | duvelisib -0.064 | gandotinib -0.186 | tozasertib -0.001 | [4] -0.07 | doramapimod 0.066 | ispinesib 0.017 | bafetinib -0.005 | [5] -0.003 | nilotinib 0.096 | [6] 0.109 | dasatinib 0.023 | [7] 0.252 | [8] 0.129 | [9] -0.029 | tipifarnib 0.073 | mubritinib -0.178

EXOSC3 (UniProt Q9NQT5)
inactive: [1] -0.075 | crizotinib -0.021 | [2] -0.027 | [3] 0.077 | duvelisib 0.02 | gandotinib -0.004 | tozasertib -0.05 | [4] 0.031 | doramapimod 0.029 | ispinesib -0.021 | bafetinib 0.047 | [5] 0.051 | nilotinib -0.09 | [6] 0.059 | dasatinib -0.039 | [7] -0.047 | [8] -0.005 | [9] -0.029 | tipifarnib -0.005 | mubritinib -0.015

The list goes on.

FAF1 (UniProt Q9UNN5)
inactive: [1] -0.004 | crizotinib 0.053 | [2] 0.05 | [3] -0.151 | duvelisib -0.008 | gandotinib -0.045 | tozasertib 0.038 | [4] -0.004 | doramapimod -0.041 | ispinesib 0.078 | bafetinib -0.065 | [5] 0.013 | nilotinib -0.003 | [6] -0.034 | dasatinib 0.044 | [7] -0.007 | [8] -0.001 | [9] 0.005 | tipifarnib -0.001 | mubritinib 0.041

ESD (UniProt P10768)
inactive: [1] -0.014 | crizotinib 0.041 | [2] 0.038 | [3] -0.056 | duvelisib 0.047 | gandotinib 0.001 | tozasertib -0.009 | [4] -0.002 | doramapimod -0.046 | ispinesib 0.082 | bafetinib -0.025 | [5] 0.01 | nilotinib -0.018 | [6] 0.05 | dasatinib 0.014 | [7] 0.005 | [8] 0.009 | [9] 0.025 | tipifarnib -0.043 | mubritinib 0.013

ERC1 (UniProt Q8IUD2)
inactive: [1] 0.023 | crizotinib -0.119 | [2] 0.019 | [3] -0.001 | duvelisib 0.099 | gandotinib -0.216 | tozasertib -0.005 | [4] -0.103 | doramapimod 0.064 | ispinesib -0.148 | bafetinib -0.088 | [5] 0.069 | nilotinib 0.102 | [6] -0.02 | dasatinib -0.028 | [7] -0.094 | [8] 0.172 | [9] 0.11 | tipifarnib -0.035 | mubritinib 0.189

EPRS (UniProt P07814)
inactive: [1] 0.069 | crizotinib -0.076 | [2] -0.319 | [3] 0.401 | duvelisib -0.163 | gandotinib 0.141 | tozasertib 0.025 | [4] 0.09 | doramapimod 0.257 | ispinesib -0.255 | bafetinib 0.108 | [5] 0.012 | nilotinib -0.079 | [6] 0.007 | dasatinib 0.066 | [7] 0.035 | [8] -0.24 | [9] -0.176 | tipifarnib 0.042 | mubritinib -0.119

ETHE1 (UniProt O95571)
inactive: [1] 0.002 | crizotinib 0.094 | [2] 0.031 | [3] -0.042 | duvelisib 0.028 | gandotinib 0.168 | tozasertib -0.054 | [4] -0.093 | doramapimod -0.028 | ispinesib 0.039 | bafetinib -0.071 | [5] 0.104 | nilotinib -0.013 | [6] 0.049 | dasatinib 0.023 | [7] -0.018 | [8] 0.045 | [9] -0.028 | tipifarnib 0.004 | mubritinib -0.029

EXOSC1 (UniProt Q9Y3B2)
inactive: [1] -0.022 | crizotinib 0.008 | [2] -0.092 | [3] 0.169 | duvelisib -0.062 | gandotinib 0.029 | tozasertib -0.013 | [4] 0.109 | doramapimod 0.043 | ispinesib -0.147 | bafetinib 0.15 | [5] -0.017 | nilotinib -0.05 | [6] -0.008 | dasatinib -0.018 | [7] 0.012 | [8] -0.084 | [9] -0.086 | tipifarnib 0.007 | mubritinib -0.056

EXOSC2 (UniProt Q13868)
inactive: [1] -0.064 | crizotinib 0.042 | [2] 0.003 | [3] 0.008 | duvelisib 0.018 | gandotinib -0.047 | tozasertib -0.019 | [4] -0.047 | doramapimod 0 | ispinesib 0.003 | bafetinib 0.012 | [5] -0.036 | nilotinib -0.002 | [6] 0.045 | dasatinib 0.086 | [7] -0.023 | [8] -0.018 | [9] 0.008 | tipifarnib 0.016 | mubritinib 0.013

EXOSC4 (UniProt Q9NPD3)
inactive: [1] -0.026 | crizotinib 0.01 | [2] -0.004 | [3] -0.004 | duvelisib 0.002 | gandotinib -0.016 | tozasertib -0.016 | [4] 0.003 | doramapimod -0.011 | ispinesib 0.074 | bafetinib 0.002 | [5] 0.043 | nilotinib 0.008 | [6] 0 | dasatinib 0.009 | [7] -0.005 | [8] 0.001 | [9] -0.019 | tipifarnib -0.029 | mubritinib 0.014

ERVK3-1, A0A0U1RQV1
inactive: [1] 0.013 | crizotinib 0.112 | [2] -0.043 | [3] -0.122 | duvelisib 0.107 | gandotinib 0.118 | tozasertib 0.072 | [4] -0.039 | doramapimod 0.037 | ispinesib 0.238 | bafetinib -0.058 | [5] -0.078 | nilotinib 0.056 | [6] 0.006 | dasatinib 0.075 | [7] -0.058 | [8] 0.019 | [9] 0.247 | tipifarnib 0.092 | mubritinib 0.014

FAM192A (UniProt Q9GZU8)
inactive: [1] 0.004 | crizotinib 0.04 | [2] 0.074 | [3] -0.027 | duvelisib 0.023 | gandotinib 0.024 | tozasertib -0.045 | [4] -0.059 | doramapimod -0.037 | ispinesib 0.013 | bafetinib -0.043 | [5] -0.08 | nilotinib -0.009 | [6] 0.021 | dasatinib 0.054 | [7] -0.02 | [8] 0.009 | [9] 0.015 | tipifarnib -0.016 | mubritinib 0.036

F2 (UniProt P00734)
inactive: [1] -0.099 | crizotinib 0.081 | [2] 0.135 | [3] 0.11 | duvelisib 0.021 | gandotinib -0.128 | tozasertib -0.108 | [4] 0.086 | doramapimod 0.011 | ispinesib -0.02 | bafetinib -0.148 | [5] 0.087 | nilotinib 0.046 | [6] -0.036 | dasatinib 0.016 | [7] 0.171 | [8] 0.304 | [9] 0.206 | tipifarnib 0.138 | mubritinib -0.122

EZR (UniProt P15311)
inactive: [1] 0.007 | crizotinib 0.073 | [2] 0.003 | [3] -0.087 | duvelisib 0.004 | gandotinib -0.015 | tozasertib 0.031 | [4] -0.003 | doramapimod -0.009 | ispinesib 0.1 | bafetinib 0.008 | [5] 0.027 | nilotinib 0.011 | [6] 0.028 | dasatinib -0.013 | [7] -0.007 | [8] 0.055 | [9] -0.025 | tipifarnib -0.02 | mubritinib 0.038

ESRRA (UniProt P11474)
inactive: [1] 0.016 | crizotinib 0.195 | [2] -0.046 | [3] -0.036 | duvelisib -0.009 | gandotinib 0.003 | tozasertib 0.09 | [4] 0.056 | doramapimod 0.056 | ispinesib -0.063 | bafetinib -0.026 | [5] 0.015 | nilotinib -0.057 | [6] -0.01 | dasatinib -0.01 | [7] 0.068 | [8] 0.077 | [9] -0.007 | tipifarnib -0.006 | mubritinib 0.003
